The list shows a part of the results.
These targets were tested with COc1ccc(Cn2ccc3ccc(C(=O)NO)cc32)cc1 (assay: dose-dependent thermal stabilisation call (2D-TPP, DLPTP, 10% FDR) (binary (1 = stabilised)); higher = stabilised by the compound). Details: system: HL-60 intact cells; concentration range 0.04-10 µM.

The chains behind the UniProt entries cited, without tags or fusion partners. Where a name states a change or a piece, a line headed by the entry shows the natural chain unless it says otherwise.
UniProt Q99700, whole entry: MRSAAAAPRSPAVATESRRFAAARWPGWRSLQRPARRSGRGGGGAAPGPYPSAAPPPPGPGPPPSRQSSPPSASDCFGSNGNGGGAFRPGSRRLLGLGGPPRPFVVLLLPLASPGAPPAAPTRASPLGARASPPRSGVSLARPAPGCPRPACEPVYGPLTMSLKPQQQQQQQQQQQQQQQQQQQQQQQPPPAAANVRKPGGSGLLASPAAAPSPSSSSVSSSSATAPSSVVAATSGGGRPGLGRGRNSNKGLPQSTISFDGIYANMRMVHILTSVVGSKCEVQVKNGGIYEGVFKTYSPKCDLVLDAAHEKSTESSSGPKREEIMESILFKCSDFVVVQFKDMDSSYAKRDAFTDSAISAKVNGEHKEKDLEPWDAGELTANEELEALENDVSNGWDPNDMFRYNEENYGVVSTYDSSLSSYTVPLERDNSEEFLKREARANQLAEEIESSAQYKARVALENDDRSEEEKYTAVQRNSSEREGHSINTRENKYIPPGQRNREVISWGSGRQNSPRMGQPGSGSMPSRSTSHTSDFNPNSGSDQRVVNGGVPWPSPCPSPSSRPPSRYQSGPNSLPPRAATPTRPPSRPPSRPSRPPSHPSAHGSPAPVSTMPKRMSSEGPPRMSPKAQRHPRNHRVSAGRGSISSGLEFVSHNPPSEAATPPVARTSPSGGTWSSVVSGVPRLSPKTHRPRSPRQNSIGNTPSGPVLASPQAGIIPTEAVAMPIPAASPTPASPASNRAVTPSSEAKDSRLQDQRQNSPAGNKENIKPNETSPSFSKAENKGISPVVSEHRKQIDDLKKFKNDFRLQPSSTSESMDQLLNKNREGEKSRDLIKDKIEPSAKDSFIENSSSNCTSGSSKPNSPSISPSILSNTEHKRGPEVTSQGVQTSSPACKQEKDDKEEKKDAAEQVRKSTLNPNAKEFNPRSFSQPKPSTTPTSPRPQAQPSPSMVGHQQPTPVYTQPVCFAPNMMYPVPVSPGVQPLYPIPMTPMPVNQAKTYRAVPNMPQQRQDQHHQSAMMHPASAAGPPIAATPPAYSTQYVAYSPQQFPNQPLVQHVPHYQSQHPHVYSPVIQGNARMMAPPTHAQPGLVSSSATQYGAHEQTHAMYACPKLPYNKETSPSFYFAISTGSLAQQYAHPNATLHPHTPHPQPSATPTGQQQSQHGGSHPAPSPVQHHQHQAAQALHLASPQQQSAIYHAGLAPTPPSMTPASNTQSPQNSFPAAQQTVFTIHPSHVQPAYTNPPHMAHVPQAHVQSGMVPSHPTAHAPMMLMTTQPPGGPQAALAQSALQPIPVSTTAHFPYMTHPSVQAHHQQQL
UniProt P20020: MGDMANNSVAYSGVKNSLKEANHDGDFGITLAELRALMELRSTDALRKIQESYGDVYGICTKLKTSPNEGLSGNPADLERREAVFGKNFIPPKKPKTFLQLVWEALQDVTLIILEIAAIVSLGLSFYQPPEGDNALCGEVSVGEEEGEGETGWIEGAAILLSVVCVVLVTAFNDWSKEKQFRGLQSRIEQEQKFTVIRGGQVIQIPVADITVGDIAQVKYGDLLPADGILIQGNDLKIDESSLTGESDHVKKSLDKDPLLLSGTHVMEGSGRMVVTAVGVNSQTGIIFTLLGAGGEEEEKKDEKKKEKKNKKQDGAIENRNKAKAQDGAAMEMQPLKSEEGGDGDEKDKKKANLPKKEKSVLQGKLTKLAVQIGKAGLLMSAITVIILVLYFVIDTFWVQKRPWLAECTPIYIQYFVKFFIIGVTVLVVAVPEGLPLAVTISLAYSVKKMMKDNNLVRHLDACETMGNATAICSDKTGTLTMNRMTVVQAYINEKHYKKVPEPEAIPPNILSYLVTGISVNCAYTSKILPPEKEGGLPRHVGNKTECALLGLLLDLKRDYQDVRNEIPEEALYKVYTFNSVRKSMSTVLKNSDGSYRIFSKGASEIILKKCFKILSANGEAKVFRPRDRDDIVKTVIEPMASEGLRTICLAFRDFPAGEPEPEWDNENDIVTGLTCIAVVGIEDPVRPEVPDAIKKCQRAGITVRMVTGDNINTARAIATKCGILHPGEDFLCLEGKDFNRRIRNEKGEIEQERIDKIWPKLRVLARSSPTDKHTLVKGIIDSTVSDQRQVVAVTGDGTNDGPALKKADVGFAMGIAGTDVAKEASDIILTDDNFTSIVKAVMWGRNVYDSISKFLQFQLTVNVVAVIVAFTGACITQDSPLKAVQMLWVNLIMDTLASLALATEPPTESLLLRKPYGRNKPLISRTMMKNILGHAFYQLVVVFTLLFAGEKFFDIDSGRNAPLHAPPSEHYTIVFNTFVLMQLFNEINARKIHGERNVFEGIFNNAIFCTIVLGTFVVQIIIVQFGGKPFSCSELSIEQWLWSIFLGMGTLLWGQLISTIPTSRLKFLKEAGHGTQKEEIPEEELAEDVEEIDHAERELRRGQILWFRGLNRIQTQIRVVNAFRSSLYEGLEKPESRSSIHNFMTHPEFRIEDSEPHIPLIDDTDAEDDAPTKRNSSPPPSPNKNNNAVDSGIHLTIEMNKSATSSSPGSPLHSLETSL
UniProt Q02338: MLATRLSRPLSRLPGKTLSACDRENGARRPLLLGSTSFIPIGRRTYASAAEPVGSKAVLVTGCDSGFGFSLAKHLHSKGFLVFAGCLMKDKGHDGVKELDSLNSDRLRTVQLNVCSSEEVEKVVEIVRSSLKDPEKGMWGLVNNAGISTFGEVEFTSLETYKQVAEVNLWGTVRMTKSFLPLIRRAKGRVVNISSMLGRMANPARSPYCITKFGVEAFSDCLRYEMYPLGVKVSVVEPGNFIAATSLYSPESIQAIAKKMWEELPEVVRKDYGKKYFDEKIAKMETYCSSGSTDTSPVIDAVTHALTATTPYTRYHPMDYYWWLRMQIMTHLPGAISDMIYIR
UniProt Q9NVI7: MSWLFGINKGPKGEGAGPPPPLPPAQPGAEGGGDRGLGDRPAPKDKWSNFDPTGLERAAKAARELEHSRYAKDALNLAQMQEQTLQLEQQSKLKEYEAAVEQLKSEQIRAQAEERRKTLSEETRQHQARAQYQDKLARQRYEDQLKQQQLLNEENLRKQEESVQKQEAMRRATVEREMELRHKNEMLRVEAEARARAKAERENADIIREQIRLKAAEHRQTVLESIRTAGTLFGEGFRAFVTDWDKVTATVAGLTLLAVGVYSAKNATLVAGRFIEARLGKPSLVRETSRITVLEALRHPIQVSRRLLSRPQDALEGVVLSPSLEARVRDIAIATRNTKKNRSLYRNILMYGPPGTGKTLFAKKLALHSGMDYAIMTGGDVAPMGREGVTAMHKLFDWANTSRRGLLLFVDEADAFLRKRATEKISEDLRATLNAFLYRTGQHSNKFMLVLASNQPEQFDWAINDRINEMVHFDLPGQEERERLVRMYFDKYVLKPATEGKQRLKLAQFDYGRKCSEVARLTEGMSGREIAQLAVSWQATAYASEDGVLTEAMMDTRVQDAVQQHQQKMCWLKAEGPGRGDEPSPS
UniProt Q53FT3: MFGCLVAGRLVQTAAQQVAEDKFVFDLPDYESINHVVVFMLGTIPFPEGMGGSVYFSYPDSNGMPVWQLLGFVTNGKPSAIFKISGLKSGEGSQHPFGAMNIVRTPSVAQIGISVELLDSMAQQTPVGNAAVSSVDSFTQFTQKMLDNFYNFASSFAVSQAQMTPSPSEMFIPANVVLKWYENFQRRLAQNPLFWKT
UniProt B4E0S5, whole entry, looked up: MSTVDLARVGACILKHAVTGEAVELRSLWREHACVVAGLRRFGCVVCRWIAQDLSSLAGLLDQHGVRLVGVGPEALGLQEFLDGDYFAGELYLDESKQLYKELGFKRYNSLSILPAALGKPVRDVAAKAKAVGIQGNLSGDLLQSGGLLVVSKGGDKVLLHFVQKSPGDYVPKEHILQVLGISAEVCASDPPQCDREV
UniProt O95671: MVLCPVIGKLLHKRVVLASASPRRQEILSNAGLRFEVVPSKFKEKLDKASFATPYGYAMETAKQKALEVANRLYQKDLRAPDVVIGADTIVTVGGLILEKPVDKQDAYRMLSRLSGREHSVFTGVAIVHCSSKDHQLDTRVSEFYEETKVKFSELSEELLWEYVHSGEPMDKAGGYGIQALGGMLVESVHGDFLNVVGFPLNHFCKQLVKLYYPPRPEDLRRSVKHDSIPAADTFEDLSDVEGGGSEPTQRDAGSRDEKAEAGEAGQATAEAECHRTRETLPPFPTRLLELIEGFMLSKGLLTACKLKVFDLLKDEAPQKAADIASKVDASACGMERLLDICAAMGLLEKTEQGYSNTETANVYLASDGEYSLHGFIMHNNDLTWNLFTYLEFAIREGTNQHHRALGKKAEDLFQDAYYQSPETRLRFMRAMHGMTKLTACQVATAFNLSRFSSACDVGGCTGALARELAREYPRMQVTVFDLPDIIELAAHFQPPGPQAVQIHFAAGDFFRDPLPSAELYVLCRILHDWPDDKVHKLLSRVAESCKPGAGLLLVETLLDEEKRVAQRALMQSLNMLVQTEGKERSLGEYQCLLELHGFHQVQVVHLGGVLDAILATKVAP
UniProt Q7L1Q6: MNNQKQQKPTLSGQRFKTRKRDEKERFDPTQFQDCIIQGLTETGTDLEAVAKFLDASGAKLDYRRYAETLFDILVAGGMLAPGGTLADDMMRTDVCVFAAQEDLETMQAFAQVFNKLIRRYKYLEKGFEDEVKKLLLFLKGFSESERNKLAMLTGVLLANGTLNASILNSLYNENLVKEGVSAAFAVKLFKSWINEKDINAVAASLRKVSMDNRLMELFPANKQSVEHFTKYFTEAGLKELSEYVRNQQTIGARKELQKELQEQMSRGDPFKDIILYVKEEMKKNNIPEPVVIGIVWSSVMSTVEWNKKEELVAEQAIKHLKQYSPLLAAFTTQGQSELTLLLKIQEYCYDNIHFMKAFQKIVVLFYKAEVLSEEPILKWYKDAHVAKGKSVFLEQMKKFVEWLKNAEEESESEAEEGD
UniProt Q07817, whole entry: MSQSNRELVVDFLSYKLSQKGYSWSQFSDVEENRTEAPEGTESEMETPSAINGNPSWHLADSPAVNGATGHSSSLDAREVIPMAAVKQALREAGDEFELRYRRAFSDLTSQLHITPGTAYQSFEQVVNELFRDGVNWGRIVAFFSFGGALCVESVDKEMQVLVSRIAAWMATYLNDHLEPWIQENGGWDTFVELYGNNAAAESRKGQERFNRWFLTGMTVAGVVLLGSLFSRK
UniProt O95816: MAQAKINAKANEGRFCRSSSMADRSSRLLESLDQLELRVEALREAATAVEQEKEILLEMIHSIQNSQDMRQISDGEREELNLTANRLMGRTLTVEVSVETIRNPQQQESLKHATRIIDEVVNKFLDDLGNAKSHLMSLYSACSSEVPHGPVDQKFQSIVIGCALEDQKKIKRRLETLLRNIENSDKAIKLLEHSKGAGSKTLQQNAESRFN
UniProt Q9P287, whole entry: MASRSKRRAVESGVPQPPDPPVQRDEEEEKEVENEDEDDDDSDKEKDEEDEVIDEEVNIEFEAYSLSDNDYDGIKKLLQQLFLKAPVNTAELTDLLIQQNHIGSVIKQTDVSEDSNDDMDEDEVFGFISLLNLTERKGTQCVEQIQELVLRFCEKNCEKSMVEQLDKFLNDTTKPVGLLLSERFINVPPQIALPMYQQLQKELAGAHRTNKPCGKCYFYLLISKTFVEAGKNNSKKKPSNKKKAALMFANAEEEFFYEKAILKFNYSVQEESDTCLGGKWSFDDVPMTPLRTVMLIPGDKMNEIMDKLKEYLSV
UniProt Q9UBL3, whole entry, looked up: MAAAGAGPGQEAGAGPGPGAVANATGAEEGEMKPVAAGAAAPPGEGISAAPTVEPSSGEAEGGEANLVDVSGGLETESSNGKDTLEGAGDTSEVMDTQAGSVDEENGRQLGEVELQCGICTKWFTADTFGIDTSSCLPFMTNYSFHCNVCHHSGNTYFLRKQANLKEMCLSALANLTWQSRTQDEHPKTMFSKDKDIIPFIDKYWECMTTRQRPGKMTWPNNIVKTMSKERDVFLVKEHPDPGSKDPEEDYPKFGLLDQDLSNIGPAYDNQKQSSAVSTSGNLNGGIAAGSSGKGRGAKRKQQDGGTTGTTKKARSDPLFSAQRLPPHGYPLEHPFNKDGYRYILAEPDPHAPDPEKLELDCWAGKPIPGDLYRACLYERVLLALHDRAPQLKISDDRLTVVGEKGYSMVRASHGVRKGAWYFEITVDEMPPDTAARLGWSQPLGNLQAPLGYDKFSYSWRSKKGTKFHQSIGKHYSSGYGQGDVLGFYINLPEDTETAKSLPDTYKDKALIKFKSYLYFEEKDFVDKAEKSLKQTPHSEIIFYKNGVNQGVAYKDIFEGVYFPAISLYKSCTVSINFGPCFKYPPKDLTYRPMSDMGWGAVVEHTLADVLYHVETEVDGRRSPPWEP
UniProt O00244: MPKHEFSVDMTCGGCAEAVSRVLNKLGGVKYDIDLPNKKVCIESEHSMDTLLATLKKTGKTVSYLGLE
UniProt P56134: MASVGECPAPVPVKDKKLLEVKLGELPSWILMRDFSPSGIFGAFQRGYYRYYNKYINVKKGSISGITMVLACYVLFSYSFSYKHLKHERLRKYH
UniProt O94817, whole entry: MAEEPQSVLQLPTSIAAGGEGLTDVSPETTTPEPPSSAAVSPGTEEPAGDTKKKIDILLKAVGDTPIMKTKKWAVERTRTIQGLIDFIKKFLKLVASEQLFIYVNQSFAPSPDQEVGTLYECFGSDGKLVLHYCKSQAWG

Row | Target | dose-dependent thermal stabilisation call
1 | ATXN2 (UniProt Q99700) | inactive: 0
2 | ATP2B1 (UniProt P20020) | inactive: 0
3 | BDH1 (UniProt Q02338) | inactive: 0
4 | ATAD3A (UniProt Q9NVI7) | inactive: 0
5 | ASNA1 (UniProt O43681) | inactive: 0
6 | ARRDC1 (UniProt Q8N5I2) | inactive: 0
7 | C11ORF73 (UniProt Q53FT3) | inactive: 0
8 | UniProt B4E0S5_HUMAN | inactive: 0
9 | ASMTL (UniProt O95671) | active: 1
10 | BZW1 (UniProt Q7L1Q6) | inactive: 0
11 | BLVRA (UniProt P53004) | inactive: 0
12 | BCL2L1 (UniProt Q07817) | inactive: 0
13 | BPNT1 (UniProt O95861) | inactive: 0
14 | ATG9A (UniProt Q7Z3C6) | inactive: 0
15 | BUD13 (UniProt Q9BRD0) | inactive: 0
16 | BRD4 (UniProt O60885) | inactive: 0
17 | BAT2 (UniProt P48634) | inactive: 0
18 | BAG2 (UniProt O95816) | inactive: 0
19 | C12ORF30 (UniProt Q14CX7) | inactive: 0
20 | BID (UniProt P55957) | inactive: 0
21 | BCCIP (UniProt Q9P287) | inactive: 0
22 | ARPC5 (UniProt O15511) | inactive: 0
23 | ASH2L (UniProt Q9UBL3) | inactive: 0
24 | ATOX1 (UniProt O00244) | inactive: 0
25 | ATP5J2 (UniProt P56134) | inactive: 0
26 | BLM (UniProt P54132) | inactive: 0
27 | ATG12 (UniProt O94817) | inactive: 0

Reprinted at random: 2 records from the list.
Row | Target | dose-dependent thermal stabilisation call
26 | BLM (UniProt P54132) | inactive: 0
15 | BUD13 (UniProt Q9BRD0) | inactive: 0

From the supplement of paper PMC7666118
